Our source for the log2 fold change values is the supplement of paper PMC12819154, “High-throughput peptide-centric local stability assay extends protein–ligand identification to membrane proteins, tissues and bacteria” (Nature Structural & Molecular Biology, 2025).

Protein sequences, listed by entry. Tags and fused reporters are not part of them. Lines headed by an entry give the natural chain unless they say otherwise; changes in a name come on top.
UniProt Q06481, whole entry: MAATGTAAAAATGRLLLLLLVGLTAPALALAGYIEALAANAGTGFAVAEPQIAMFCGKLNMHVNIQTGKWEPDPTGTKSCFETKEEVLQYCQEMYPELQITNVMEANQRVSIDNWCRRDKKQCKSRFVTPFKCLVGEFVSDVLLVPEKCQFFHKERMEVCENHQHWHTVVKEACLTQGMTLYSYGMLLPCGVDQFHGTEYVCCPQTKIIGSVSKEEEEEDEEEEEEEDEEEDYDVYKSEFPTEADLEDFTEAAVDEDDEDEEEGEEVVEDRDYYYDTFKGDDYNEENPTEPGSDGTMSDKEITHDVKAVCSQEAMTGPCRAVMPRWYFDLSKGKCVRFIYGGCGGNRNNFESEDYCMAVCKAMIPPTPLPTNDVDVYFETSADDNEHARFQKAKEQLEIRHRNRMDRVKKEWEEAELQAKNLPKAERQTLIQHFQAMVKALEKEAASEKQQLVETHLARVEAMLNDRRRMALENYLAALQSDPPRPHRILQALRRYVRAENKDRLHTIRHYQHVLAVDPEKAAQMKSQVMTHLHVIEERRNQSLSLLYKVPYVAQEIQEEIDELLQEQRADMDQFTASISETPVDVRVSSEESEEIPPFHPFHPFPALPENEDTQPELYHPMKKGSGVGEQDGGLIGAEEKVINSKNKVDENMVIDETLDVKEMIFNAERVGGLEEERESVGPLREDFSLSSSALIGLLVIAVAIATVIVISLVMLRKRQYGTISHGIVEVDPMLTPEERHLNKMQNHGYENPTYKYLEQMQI
UniProt Q02539, whole entry: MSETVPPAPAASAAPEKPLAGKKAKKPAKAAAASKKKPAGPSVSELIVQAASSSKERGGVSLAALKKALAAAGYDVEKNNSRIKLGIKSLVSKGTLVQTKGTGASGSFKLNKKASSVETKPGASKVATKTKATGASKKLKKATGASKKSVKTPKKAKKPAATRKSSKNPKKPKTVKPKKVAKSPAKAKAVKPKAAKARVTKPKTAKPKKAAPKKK
UniProt Q13148, whole entry: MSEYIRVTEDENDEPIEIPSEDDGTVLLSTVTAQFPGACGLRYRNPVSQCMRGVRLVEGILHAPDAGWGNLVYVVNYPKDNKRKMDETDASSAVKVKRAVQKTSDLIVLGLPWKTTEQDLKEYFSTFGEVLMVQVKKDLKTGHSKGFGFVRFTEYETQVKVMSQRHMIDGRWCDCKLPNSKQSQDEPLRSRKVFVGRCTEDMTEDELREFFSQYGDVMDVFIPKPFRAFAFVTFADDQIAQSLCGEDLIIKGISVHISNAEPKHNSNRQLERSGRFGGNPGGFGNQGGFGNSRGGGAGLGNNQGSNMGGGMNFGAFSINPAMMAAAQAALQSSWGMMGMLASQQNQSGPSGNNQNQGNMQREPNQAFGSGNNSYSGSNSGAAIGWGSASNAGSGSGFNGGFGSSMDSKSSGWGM
UniProt Q00059: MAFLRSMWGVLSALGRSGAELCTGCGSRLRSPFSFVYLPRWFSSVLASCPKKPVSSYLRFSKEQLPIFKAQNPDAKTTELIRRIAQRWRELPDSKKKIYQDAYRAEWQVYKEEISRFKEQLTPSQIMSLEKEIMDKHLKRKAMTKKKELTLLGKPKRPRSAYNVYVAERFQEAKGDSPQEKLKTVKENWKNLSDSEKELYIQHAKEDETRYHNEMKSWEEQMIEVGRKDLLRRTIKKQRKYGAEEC
UniProt Q12986: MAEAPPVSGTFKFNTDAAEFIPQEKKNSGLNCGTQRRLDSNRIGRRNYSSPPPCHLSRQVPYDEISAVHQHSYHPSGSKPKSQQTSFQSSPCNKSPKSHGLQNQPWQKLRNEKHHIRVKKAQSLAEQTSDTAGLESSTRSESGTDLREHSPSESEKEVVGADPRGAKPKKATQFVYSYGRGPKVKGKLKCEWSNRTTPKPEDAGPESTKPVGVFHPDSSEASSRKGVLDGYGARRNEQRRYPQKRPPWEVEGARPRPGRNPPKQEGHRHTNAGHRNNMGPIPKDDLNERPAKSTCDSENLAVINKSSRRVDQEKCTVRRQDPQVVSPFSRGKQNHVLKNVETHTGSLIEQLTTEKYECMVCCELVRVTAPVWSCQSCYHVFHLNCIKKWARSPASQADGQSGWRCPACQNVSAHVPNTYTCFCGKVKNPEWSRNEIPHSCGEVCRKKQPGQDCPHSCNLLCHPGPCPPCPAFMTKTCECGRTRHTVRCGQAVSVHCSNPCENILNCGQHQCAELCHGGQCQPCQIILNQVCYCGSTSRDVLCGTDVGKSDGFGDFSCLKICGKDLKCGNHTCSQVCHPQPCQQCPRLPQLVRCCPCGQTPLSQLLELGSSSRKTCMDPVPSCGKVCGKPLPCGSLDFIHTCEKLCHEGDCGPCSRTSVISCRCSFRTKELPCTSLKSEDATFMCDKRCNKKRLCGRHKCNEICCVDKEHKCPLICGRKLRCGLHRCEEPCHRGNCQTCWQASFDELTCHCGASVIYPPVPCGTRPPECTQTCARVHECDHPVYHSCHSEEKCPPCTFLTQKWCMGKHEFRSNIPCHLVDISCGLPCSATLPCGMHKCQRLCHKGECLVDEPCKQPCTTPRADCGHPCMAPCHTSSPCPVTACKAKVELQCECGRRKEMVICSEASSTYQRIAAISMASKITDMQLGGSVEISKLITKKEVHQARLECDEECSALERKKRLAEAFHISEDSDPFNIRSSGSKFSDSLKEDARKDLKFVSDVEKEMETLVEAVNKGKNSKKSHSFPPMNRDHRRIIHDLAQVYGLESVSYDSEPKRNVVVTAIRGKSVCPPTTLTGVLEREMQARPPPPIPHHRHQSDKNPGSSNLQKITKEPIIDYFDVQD
UniProt Q13015: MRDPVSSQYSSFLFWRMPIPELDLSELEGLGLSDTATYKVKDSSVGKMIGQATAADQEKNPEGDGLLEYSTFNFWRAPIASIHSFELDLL
UniProt Q13111, whole entry: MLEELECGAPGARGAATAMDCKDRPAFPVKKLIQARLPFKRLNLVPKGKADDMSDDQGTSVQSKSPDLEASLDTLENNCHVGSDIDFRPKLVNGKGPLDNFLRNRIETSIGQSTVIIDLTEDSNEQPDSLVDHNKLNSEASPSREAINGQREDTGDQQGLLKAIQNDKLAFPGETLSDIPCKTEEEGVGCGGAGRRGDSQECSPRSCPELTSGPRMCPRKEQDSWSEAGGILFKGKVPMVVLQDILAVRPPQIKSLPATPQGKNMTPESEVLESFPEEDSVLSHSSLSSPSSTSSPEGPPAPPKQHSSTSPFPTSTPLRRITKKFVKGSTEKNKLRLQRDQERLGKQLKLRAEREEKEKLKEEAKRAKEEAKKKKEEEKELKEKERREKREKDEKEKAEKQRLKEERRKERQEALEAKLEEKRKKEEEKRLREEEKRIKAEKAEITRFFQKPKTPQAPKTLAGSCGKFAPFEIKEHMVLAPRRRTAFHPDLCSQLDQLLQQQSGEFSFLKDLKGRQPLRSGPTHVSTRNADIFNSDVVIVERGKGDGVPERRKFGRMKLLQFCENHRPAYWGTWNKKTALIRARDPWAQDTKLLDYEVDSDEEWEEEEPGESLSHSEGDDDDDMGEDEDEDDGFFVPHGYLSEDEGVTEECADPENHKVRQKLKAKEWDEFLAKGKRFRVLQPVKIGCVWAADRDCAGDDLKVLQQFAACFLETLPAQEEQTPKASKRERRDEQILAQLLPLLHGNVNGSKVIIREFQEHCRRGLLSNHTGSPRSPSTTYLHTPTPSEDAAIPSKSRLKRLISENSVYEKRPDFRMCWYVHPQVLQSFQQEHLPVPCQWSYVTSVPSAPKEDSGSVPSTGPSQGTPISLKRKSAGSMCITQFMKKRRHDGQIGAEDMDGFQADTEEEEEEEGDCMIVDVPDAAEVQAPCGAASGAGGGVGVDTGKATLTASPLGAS
UniProt Q07617: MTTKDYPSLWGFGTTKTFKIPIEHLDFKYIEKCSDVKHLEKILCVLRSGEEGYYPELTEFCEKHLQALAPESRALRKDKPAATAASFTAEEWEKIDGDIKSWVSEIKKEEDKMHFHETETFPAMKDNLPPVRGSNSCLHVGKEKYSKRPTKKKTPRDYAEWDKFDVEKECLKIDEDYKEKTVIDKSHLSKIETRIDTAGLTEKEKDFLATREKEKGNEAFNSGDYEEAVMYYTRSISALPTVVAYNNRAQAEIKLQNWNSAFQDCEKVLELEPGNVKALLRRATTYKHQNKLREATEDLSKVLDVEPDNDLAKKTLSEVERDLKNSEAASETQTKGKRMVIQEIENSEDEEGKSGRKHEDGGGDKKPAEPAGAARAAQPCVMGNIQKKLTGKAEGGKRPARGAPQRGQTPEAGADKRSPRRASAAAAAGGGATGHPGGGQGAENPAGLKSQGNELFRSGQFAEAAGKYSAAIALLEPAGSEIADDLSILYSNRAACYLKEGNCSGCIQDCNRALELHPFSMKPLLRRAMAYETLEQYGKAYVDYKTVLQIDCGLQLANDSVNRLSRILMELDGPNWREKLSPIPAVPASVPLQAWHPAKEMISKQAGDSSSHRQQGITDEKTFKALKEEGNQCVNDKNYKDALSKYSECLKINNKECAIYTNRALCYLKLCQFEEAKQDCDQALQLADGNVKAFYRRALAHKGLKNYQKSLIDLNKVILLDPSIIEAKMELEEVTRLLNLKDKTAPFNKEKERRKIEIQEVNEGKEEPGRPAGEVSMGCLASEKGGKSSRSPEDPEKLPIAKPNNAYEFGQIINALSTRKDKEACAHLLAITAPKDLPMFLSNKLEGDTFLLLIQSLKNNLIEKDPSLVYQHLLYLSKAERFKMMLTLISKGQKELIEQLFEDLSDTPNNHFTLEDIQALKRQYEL
UniProt Q13045: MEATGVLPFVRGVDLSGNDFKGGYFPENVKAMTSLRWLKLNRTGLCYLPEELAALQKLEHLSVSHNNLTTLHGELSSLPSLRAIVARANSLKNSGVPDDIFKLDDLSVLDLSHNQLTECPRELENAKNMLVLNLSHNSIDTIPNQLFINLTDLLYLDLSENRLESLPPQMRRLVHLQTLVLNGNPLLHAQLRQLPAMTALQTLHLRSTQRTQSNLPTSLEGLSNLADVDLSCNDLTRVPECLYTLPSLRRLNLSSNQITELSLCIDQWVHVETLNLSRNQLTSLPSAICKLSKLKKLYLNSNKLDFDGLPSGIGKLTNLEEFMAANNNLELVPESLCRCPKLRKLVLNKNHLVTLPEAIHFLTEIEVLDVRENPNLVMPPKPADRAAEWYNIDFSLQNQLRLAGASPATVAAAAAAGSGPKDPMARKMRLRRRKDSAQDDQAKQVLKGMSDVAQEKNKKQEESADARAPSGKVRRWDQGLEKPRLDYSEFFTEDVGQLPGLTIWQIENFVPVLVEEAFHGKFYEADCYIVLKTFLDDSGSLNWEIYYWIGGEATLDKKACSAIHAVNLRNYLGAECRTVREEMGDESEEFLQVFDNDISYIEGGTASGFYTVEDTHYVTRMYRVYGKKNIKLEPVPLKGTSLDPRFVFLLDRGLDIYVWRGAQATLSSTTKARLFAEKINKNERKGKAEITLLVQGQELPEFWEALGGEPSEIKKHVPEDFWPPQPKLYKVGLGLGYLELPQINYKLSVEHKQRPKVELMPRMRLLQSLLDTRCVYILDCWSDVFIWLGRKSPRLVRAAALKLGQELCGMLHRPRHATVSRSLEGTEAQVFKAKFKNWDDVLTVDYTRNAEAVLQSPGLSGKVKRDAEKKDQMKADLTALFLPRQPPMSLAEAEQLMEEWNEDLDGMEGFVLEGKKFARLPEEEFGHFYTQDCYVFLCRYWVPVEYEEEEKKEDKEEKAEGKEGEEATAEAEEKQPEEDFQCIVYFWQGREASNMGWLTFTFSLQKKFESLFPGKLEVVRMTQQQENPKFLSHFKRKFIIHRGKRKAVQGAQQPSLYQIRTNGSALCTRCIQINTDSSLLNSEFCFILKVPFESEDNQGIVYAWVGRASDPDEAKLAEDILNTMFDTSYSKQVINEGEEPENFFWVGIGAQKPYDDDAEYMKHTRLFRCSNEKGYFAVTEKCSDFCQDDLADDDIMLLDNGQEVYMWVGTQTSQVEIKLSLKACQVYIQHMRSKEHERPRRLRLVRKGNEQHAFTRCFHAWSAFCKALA
UniProt Q00587: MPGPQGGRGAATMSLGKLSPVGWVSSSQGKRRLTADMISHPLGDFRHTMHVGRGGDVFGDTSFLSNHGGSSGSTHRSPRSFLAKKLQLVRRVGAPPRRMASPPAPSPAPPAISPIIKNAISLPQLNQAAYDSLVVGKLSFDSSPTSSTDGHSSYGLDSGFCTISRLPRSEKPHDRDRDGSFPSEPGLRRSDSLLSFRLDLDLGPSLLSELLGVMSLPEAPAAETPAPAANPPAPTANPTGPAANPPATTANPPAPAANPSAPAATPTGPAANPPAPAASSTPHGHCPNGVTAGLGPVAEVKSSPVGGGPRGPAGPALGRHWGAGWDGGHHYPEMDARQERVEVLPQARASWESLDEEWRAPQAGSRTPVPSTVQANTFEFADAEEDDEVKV

The other results are listed elsewhere or left out. Most values lie at the level of the controls, where differences are scatter.

Compound in this experiment: CN[C@@H]1C[C@H]2O[C@@](C)([C@@H]1OC)n1c3ccccc3c3c4c(c5c6ccccc6n2c5c31)C(=O)NC4 [staurosporine]
As to the kind of experiment: log2 fold change of tryptic peptide abundance, ligand vs vehicle (limited proteolysis) (log2 ratio); higher = more trypsin-susceptible (destabilized). Particulars: ligand concentration: 20 uM; sample: K562 cleared lysate; digestion: 4 min, 22 C (HT-PELSA RT4min, Orbitrap Astral).
“ARHGAP5 (peptide sequence: IQITILSYHSSIGVR, peptide start residue: 829) (UniProt Q13017)”: the log2 fold change turned out to be 0.415.
As to “APLP2 (peptide sequence: VSIDNWCR, peptide start residue: 110) (UniProt Q06481)”, the log2 fold change was determined as 0.948.
Next, “UniProt Q02539 (peptide sequence: GTGASGSFKLNK, peptide start residue: 98)”: 0.71; “GPS1 (peptide sequence: LQFIADHCPTLR, peptide start residue: 60) (UniProt Q13098)”: 0.464.
Next, “AKR1C1 (peptide sequence: MDSKYQCVK, peptide start residue: 1) (UniProt Q04828)”: 0.272.
Then “TARDBP (peptide sequence: FGGNPGGFGNQGGFGNSR, peptide start residue: 276) (UniProt Q13148)”, with -0.438; and “DGCR2 (peptide sequence: IESLIGANLHHFNLGR, peptide start residue: 379) (UniProt P98153)”, with -0.308.
For “UniProt Q0PNE2 (peptide sequence: DQSFTYQYK, peptide start residue: 240)”, the log2 fold change was 0.0818.
Next, “TFAM (peptide sequence: NLSDSEKELYIQHAKEDETR, peptide start residue: 191) (UniProt Q00059)”: -0.303.
Regarding “GTF2B (peptide sequence: VIDVGSEWR, peptide start residue: 45) (UniProt Q00403)”, the log2 fold change is -0.18.
Then “SF3A3 (peptide sequence: YMEVSGNLRDLYDDKDGLR, peptide start residue: 50) (UniProt Q12874)”, with -0.617.
Then “ICA1 (peptide sequence: GSTHTACSGPIDELLDMK, peptide start residue: 332) (UniProt Q05084)”, with -0.465.
In the case of “NFX1 (peptide sequence: GKQNHVLK, peptide start residue: 331) (UniProt Q12986)”, the log2 fold change is 0.727.
For “PTPN12 (peptide sequence: NSDGAVTQNK, peptide start residue: 612) (UniProt Q05209)”, the log2 fold change is -0.404.
“NEXN (peptide sequence: LTFEELER, peptide start residue: 249) (UniProt Q0ZGT2)”: the log2 fold change is 0.373.
“MLLT11 (peptide sequence: MIGQATAADQEK, peptide start residue: 48) (UniProt Q13015)”: the log2 fold change was -0.354.
Next, “FPGS (peptide sequence: IRINGQPISPELFTK, peptide start residue: 140) (UniProt Q05932)”: -0.538.
As for “CHAF1A (peptide sequence: EDSGSVPSTGPSQGTPISLK, peptide start residue: 851) (UniProt Q13111)”, the log2 fold change was -0.724.
Turning to “KIF5A (peptide sequence: SYVPYRDSK, peptide start residue: 275) (UniProt Q12840)”, the log2 fold change was 0.514.
With “SPAG1 (peptide sequence: GQTPEAGADKR, peptide start residue: 407) (UniProt Q07617)”, the log2 fold change turned out to be 0.296.
Then “SPIRE1 (peptide sequence: ALDYGLKENEER, peptide start residue: 136) (UniProt Q08AE8)”, with -0.219.
Next, “PFKP (peptide sequence: LNIIIVAEGAIDTQNKPITSEKIK, peptide start residue: 266) (UniProt Q01813)”: -0.447; “APBA1 (peptide sequence: MMQAQEAVSR, peptide start residue: 394) (UniProt Q02410)”: 0.166.
As for “FLII (peptide sequence: MEATGVLPFVR, peptide start residue: 1) (UniProt Q13045)”, the log2 fold change was 0.384.
Next, “PPFIA1 (peptide sequence: FPMADGHTDSYSTSAVLR, peptide start residue: 536) (UniProt Q13136)”: -0.462.
Next, “Q6ZWR4 (peptide sequence: DVTLEASR, peptide start residue: 382) (UniProt Q00005)”: -0.18; “UniProt Q02556 (peptide sequence: IPWKHAGK, peptide start residue: 40)”: 0.267; “CDC42EP1 (peptide sequence: SDSLLSFR, peptide start residue: 190) (UniProt Q00587)”: 0.342.
